Reference: the supplement of paper PMC11006884
Most of the targets with a hit are listed elsewhere, so they are rarer here than in the full data. Single values of this set are uncertain. This is a selection; strong and weak results do not stand in their true shares.

compound: COC(=O)/C=C/c1ccccc1 [methyl cinnamate]; assay: log2 ratio of iodoacetamide-alkyne labeling of the cysteine site, DMSO over compound (competition); higher = stronger covalent engagement of the cysteine by the compound, active = 1 or more; conditions: 500 µM; treatment time 1 h; system: HEK293T cell lysate
Method in brief: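 Electrophile (500 µM) or vehicle was added to HEK293T lysate (2 mg/mL) for 1 h at ambient temperature before iodoacetamide alkyne labelling (1 h) and click coupling to sCIP-TMT reagents. After pooling, overnight trypsin digestion at 37 °C, streptavidin enrichment and acid elution, peptides were measured by Orbitrap Eclipse LC-MS/MS with FAIMS and quantified in FragPipe. Each cysteine's log2 competition ratio compares mean control-channel with mean compound-channel reporter intensity, control over compound. Data came from duplicate channels across three replicates, excluding cysteines quantified in only one replicate.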

log2 ratio of iodoacetamide-alkyne labeling, inactive:
HNRNPA0 C7 (UniProt Q13151) 0.231
UBE3A C843 (UniProt Q05086) 0.0284
GTF3C1 C42 (UniProt Q12789) 0.298
GTF3C1 C2046 (UniProt Q12789) -0.0436
CTBP1 C134 (UniProt Q13363) -0.183
FMR1 C584 (UniProt Q06787) 0.202
GTF3C1 C1981 (UniProt Q12789) 0.162
PPAT C105 (UniProt Q06203) 0.216
TRIM28 C65 (UniProt Q13263) -0.18
BPTF C20 (UniProt Q12830) 0.0642
UniProt Q05519_C455 0.255
EIF4G1 C819 (UniProt Q04637) 0.0622
UBE2V1 C144 (UniProt Q13404) 0.216
NME3 C158 (UniProt Q13232) 0.0108
UBE3A C140 (UniProt Q05086) -0.245
TP53BP1 C772 (UniProt Q12888) -0.0907
AKAP12 C578 (UniProt Q02952) 0.442
MTA1 C68 (UniProt Q13330) 0.104
PTPN11 C573 (UniProt Q06124) 0.366
CSTF3 C536 (UniProt Q12996) 0.112
OS9 C246 (UniProt Q13438) 0.106
TRAF2 C182 (UniProt Q12933) -0.107
PRDX1 C71 (UniProt Q06830) 0.192
BPTF C1357 (UniProt Q12830) 0.139
RPL18A C64 (UniProt Q02543) 0.095
LGALS3BP C489 (UniProt Q08380) 0.29
TRAF2 C107 (UniProt Q12933) 0.166
TLE1 C89 (UniProt Q04724) -0.00836
AKAP12 C470 (UniProt Q02952) 0.17
TBL3 C613 (UniProt Q12788) 0.272
AKAP13 C1414 (UniProt Q12802) 0.361
CSTF3 C628 (UniProt Q12996) 0.167
RPL6 C44 (UniProt Q02878) 0.397
PPIG C310 (UniProt Q13427) 0.238
GFPT1 C2 (UniProt Q06210) 0.114
UniProt Q07955_C148 0.0606
PRDX1 C173 (UniProt Q06830) 0.299
TRAP1 C573 (UniProt Q12931) 0.01

At a glance, part of the list above:
log2 ratio of iodoacetamide-alkyne labeling, inactive:
CSTF3 C536 (UniProt Q12996) 0.112
OS9 C246 (UniProt Q13438) 0.106
TRAF2 C182 (UniProt Q12933) -0.107
PRDX1 C71 (UniProt Q06830) 0.192
BPTF C1357 (UniProt Q12830) 0.139
RPL18A C64 (UniProt Q02543) 0.095
LGALS3BP C489 (UniProt Q08380) 0.29
TRAF2 C107 (UniProt Q12933) 0.166
TLE1 C89 (UniProt Q04724) -0.00836
AKAP12 C470 (UniProt Q02952) 0.17
TBL3 C613 (UniProt Q12788) 0.272
